Literature values as cited in US4461765A, “Suppository containing sulfamethoxazole/trimethoprim complex and process for preparing the same” (Shionogi & Co., Ltd., priority 1979, dated 1984).
In brackets after ≈: the same amount, converted by molar mass.

Details: co-trimoxazol SMX:TMP 5:1; oral or intravenous administration

SMILES: Cc1cc(NS(=O)(=O)c2ccc(N)cc2)no1 [SMX, sulfamethoxazole]
- minimum inhibition concentration in the blood level: 12 µg/mL (≈ 47.4 µM)
